Measured values as given in patent US20100061994A1, “MEDICAL USES OF 39-DESMETHOXYRAPAMYCIN AND ANALOGUES THEREOF” (priority 2005, published 2010).
At least one structure is not confirmed: it was looked up by name or label, or the drawing left a doubt.

System: H460
Assay: Monolayer proliferation assay Protocol 1 (propidium iodide)
Format: cell-based, human
Conditions: H460, 10 μM, 4 days, mean of duplicate experiments
Protocol: In vitro evaluation of compounds for anticancer activity in a panel of 12 human tumour cell lines in a monolayer proliferation assay were carried out at the Oncotest Testing Facility, Institute for Experimental Oncology, Oncotest GmbH, Freiburg.
A modified propidium iodide assay was used to assess the effects of the test compound(s) on the growth of twelve human tumor cell lines (Dengler et al, 1995).
Briefly, cells were harvested from exponential phase cultures by trypsinization, counted and plated in 96 well flat-bottomed microtitre plates at a cell density dependent on the cell line (5-10.000 viable cells/well). […] Each concentration was plated in triplicate. 39-Desmethoxyrapamycin was applied in two concentrations (0.001 mM and 0.01 mM).
Growth inhibition was expressed as treated/control×100 (% TIC). For active compounds, IC50 & IC70 values were estimated by plotting compound concentration versus cell viability.
In vitro evaluation of 39-desmethoxyrapamycin for anticancer activity in a panel of 12 human tumour cell lines in a monolayer proliferation assay was carried out as described as Protocol 1 in the general methods above using a modified propidium iodide assay.

CO[C@H]1C[C@@H]2CC[C@@H](C)[C@@](O)(O2)C(=O)C(=O)N2CCCC[C@H]2C(=O)O[C@H]([C@H](C)C[C@@H]2CC[C@@H](O)[C@H](OC)C2)CC(=O)[C@H](C)/C=C(\C)[C@@H](O)[C@@H](OC)C(=O)[C@H](C)C[C@H](C)/C=C/C=C/C=C/1C [Rapamycin]
Test/Control (%) at drug concentration: 66%
